Results are given in words; binding and its absence hold for the method and conditions named. Some results given as binding are weak or reduced against the parent protein; the word gives no strength.

Protein sequences, listed by entry. Tags and fused reporters are not part of them. Lines headed by an entry give the natural chain unless they say otherwise; changes in a name come on top.
UniProt P40259: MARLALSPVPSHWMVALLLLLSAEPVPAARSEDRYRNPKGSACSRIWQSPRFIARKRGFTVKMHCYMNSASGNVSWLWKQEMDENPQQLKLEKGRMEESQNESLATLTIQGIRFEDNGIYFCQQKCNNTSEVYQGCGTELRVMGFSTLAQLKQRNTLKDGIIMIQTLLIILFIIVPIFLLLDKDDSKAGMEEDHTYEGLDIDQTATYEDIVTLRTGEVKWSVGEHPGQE

Consider one molecule from patent US20090068178A1.

Test [1] has as its target ECD portion of the human CD79b (TAHO5) protein (human) (UniProt P40259). In words: antibody pre-incubated with the ECD protein (antibody: protein 1:3), then FACS on BJAB cells.
Test [2] deals with T1, human CD79b (TAHO5) 21 mer peptide (human).
T1 sequence (peptide): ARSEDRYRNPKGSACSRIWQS
In words: antibody pre-incubated with the 21mer peptide (antibody: peptide 1:10), then FACS on BJAB cells.

B1: anti-human CD79b (TAHO5) antibody (SN8) (antibody, human IgG1, kappa, V domains shown)
VH: EVQLQQSGAELMKPGASVKISCKATGYTFSSYWIEWVKQRPGHGLEWIGEILPGGGDTNYNEIFKGKATFTADTSSNTAYMQLSSLTSEDSAVYYCTRRVPVYFDYWGQGTSVTVSS
VL: DIVLTQSPASLAVSLGQRATISCKASQSVDYDGDSFLNWYQQKPGQPPKLFIYAASNLESGIPARFSGSGSGTDFTLNIHPVEEEDAATYYCQQSNEDPLTFGAGTELELKR
Regarding B1, the binding entry in test [1] and in test [2] was “binds” throughout.
